# Measured values published in US20250144242A1.
# Chains of the proteins cited; added tags and fusions are not shown. Lines headed by an entry give the natural chain unless they say otherwise; changes in a name come on top. Residues count along the entry.
# UniProt P49755: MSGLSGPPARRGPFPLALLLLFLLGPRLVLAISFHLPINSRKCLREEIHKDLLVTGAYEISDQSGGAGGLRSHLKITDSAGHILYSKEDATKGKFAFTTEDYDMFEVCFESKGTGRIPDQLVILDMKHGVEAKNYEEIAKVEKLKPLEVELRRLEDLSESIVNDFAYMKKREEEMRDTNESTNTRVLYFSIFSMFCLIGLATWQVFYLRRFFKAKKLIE
# UniProt P01344, residues 25-180: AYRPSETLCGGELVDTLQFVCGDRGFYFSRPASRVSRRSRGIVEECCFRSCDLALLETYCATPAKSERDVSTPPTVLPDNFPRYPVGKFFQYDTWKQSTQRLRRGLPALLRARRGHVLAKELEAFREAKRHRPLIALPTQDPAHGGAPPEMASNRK
# No constants are given. Whether binding was seen depends on the method and setting. In cells and extracts the contact can be indirect. A result given as binding can be weak or reduced; the word gives no strength.
# Target: FLAG-tagged TMED10^1-130 (human) (UniProt P49755)
# Assay: co-immunoprecipitation on anti-FLAG beads, DSP-crosslinked HEK293T lysates, immunoblot
substance,measurement,value
"3×HA-tagged IGF2 (IGF2-HA), human (from UniProt P01344 25-180) (ligand)",binding,binds
